Data on two substances can be found in PMC7835012.

By UniProt entry, the sequences of proteins in these tests, tags left out. Residues count along the entry.
UniProt O35659, residues 22-463: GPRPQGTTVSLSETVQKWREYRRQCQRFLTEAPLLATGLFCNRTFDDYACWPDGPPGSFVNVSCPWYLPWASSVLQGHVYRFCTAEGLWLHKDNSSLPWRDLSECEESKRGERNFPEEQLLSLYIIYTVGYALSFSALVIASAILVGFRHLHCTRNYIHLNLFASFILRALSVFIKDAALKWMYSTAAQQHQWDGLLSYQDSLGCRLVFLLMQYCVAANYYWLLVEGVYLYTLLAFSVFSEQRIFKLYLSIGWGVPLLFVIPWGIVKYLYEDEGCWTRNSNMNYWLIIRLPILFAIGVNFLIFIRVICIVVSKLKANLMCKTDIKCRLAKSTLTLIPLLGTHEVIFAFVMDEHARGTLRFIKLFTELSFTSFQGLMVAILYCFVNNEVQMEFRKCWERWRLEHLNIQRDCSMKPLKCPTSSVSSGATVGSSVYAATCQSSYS
UniProt P32301, residues 22-463: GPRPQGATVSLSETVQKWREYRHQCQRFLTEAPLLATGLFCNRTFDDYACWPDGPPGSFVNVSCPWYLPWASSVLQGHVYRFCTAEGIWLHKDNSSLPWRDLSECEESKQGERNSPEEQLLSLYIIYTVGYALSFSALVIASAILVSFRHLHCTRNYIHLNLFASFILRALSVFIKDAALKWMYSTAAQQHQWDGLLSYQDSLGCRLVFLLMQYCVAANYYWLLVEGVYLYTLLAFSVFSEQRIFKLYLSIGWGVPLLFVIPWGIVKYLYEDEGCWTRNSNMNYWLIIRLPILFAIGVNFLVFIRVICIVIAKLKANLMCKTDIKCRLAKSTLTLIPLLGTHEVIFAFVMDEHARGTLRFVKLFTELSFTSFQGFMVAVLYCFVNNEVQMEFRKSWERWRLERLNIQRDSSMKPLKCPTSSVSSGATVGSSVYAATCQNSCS
UniProt Q62151, residues 23-402: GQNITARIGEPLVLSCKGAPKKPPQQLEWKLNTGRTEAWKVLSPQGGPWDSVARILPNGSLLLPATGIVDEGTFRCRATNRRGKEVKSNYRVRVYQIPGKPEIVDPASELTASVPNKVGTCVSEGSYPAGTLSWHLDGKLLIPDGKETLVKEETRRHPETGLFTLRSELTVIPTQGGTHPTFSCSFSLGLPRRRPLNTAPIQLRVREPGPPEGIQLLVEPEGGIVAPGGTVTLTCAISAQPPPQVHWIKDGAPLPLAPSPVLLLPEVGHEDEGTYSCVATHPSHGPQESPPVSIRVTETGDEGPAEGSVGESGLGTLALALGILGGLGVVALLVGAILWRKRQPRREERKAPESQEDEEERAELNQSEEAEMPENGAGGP
UniProt Q63495, residues 23-402: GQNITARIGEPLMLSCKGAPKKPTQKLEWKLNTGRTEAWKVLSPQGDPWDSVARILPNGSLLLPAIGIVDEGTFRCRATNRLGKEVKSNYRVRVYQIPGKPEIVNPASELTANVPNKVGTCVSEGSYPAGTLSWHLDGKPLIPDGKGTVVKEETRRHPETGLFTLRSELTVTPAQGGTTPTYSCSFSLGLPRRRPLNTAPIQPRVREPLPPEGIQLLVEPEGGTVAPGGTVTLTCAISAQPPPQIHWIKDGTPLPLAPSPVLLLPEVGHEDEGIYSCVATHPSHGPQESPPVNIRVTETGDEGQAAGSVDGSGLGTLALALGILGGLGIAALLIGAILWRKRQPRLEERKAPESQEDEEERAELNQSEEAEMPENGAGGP

Test [1] deals with glucagon like peptide-1 receptor (GLP-1R), endogenous in HT22 cells (mouse (endogenous in HT22)) (UniProt O35659). As to the kind of experiment: co-IP; PC12 or HT22 cell lysate (kit lysis buffer); anti-GLP-1R primary antibody, complex captured on protein A beads, boiled; western blot for RAGE. In general terms: Immunoblotting shows a protein as a band on a membrane.
The target of test [2] is glucagon like peptide-1 receptor (GLP-1R), endogenous in PC12 cells (rat (endogenous in PC12)) (UniProt P32301). The description is as above.

No constants are given. Whether binding was seen depends on the method and setting. Binding seen in cells or lysates may run through a third protein.

With “receptor of advanced glycation end products (RAGE), endogenous in HT22 cells (from UniProt Q62151 23-402)”, the binding entry in test [1] is “no binding”.

Consider “receptor of advanced glycation end products (RAGE), endogenous in PC12 cells (from UniProt Q63495 23-402)”, for which, in test [2], the binding entry is “no binding”.
